# Test results from paper doi:10.64898/2025.12.26.696631.
# These are yes or no findings as the source states them, for the method shown. Binding seen in cells or lysates may run through a third protein. Here binding means that the protein was enriched with, or labelled near, the bait; the list need not be complete. Sequences can lack the tags named with a protein.
# Molecular target: T1, HA-tagged ZDHHC11 (UniProt Q9H8X9)
# T1 sequence: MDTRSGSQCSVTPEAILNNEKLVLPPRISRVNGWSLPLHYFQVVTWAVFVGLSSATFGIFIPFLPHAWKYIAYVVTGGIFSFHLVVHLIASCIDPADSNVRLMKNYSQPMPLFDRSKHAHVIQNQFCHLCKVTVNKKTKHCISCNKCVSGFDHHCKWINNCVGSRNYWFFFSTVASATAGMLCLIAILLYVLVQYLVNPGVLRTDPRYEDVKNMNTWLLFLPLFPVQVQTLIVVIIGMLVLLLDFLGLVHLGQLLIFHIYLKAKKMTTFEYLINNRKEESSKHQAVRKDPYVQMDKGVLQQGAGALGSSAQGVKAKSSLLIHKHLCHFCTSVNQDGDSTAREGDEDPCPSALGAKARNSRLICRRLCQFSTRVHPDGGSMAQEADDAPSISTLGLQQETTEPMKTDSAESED
# Assay: affinity purification with mass spectrometry
substance,measurement,value
programmed cell death ligand 1 (PD-L1) (from UniProt Q9NZQ7 19-290),binding,binds
